Test results taken from paper PMC3615075.
These are yes or no findings as the source states them, for the method shown. Binding seen in cells or lysates may run through a third protein. Some entries that bind do so weakly or less than the wild type.

Molecular target: p53 (human (endogenous in U2OS)) (UniProt P04637)
Assay: co-IP; U2OS whole cell extracts (RIPA) incubated with anti-p53 antibody at 4°C for 3 h, then Protein A/G-Sepharose for 3 h; western blotting; cells untreated or treated with ETO (10 µM, 12 h), Jas (50 nM), CD (0.01 µg/ml), or transfected with actin or actin siRNA

B1: Aurora kinase A (enzyme, UniProt O14965 1-403)
chain: MDRSKENCISGPVKATAPVGGPKRVLVTQQFPCQNPLPVNSGQAQRVLCPSNSSQRIPLQAQKLVSSHKPVQNQKQKQLQATSVPHPVSRPLNNTQKSKQPLPSAPENNPEEELASKQKNEESKKRQWALEDFEIGRPLGKGKFGNVYLAREKQSKFILALKVLFKAQLEKAGVEHQLRREVEIQSHLRHPNILRLYGYFHDATRVYLILEYAPLGTVYRELQKLSKFDEQRTATYITELANALSYCHSKRVIHRDIKPENLLLGSAGELKIADFGWSVHAPSSRRTTLCGTLDYLPPEMIEGRMHDEKVDLWSLGVLCYEFLVGKPPFEANTYQETYKRISRVEFTFPDFVTEGARDLISRLLKHNPSQRPMLREVLEHPWITANSSKPSNCQNKESASKQS
B1 was tested. Which binding did it give?
The binding was “binds”.
